Measured values published in PubChem BioAssay AID330 (DTP/NCI, 2004).
The list does not hold the whole screen: it gathers tests that were run many times, whatever their T/C, doses with no T/C, and many T/C values between a quarter and a half above the control. Further doses and runs are listed elsewhere. T/C gives the treated animals as a percentage of the vehicle group. Some entries give survivors of the animals treated and no T/C: the source files T/C as zero there, which appears to mark a toxic dose or a test without result, not a measured value. Some survivor counts are full or nearly so, which does not show that the dose was tolerated: the source hardly ever lists a survival T/C far under the control, and the zero likely stands for such cases as well. Counts of survivors are from the toxicity check (mostly the fifth day) where no day follows; animals may have died later. Schedule codes are those of the source, read here as Q, the interval in days (D) or hours (H), X, the number of doses. Some entries were tested several times; the values are given in rising order. Additions like (4×) give the number of equal values in this list. For survival time, this PubChem deposit counts one and a half times the control or more as active, and values a quarter to a half above the control carry no call in these data; other NCI protocols may use other cut-offs. Some T/C values are followed by the survivors on the day toxicity was checked, most often the fifth; where none is given, no animal had died by that day.

Test system: P388 leukemia ip, CD2F1 mice, survival T/C
Test: NCI In Vivo Anticancer Drug Screen. Data for tumor model P388 Leukemia (intraperitoneal) in CD2F1 (CDF1) mice
Conditions: T/C endpoint: median survival time, higher T/C = longer survival
[1] = dose: 50.0 mg/kg/injection, schedule: Q01DX005 (ip), vehicle: water
[2] = dose: 80.0 mg/kg/injection, schedule: Q01DX005 (ip), vehicle: water
[3] = dose: 100.0 mg/kg/injection, schedule: Q01DX005 (ip), vehicle: saline
[4] = dose: 200.0 mg/kg/injection, schedule: Q01DX005 (ip), vehicle: saline

Q: With CC(=O)N(C)c1ccc(Nc2cc(C)[nH]c3ccc4ncnc4c23)cc1 as the compound, how does the T/C (dose: 6.25 mg/kg/injection, schedule: Q01DX009 (ip), vehicle: saline) read?
A: 126 % of control

Q: What about the T/C (dose: 10.0 mg/kg/injection, schedule: Q01DX005 (ip), vehicle: water) of the same compound?
A: 120, 125, 132, 137 % of control

Q: What about the T/C (dose: 11.0 mg/kg/injection, schedule: Q01DX005 (ip), vehicle: saline) of the same compound?
A: 130 % of control

Q: What about the T/C (dose: 12.5 mg/kg/injection, schedule: Q01DX005 (ip), vehicle: saline, evaluated on day 30) of the same compound?
A: 136 and 141 % of control

Q: And the T/C (dose: 12.5 mg/kg/injection, schedule: Q01DX005 (ip), vehicle: saline, evaluated on day 60)?
A: 131 % of control

Q: And the T/C (dose: 12.5 mg/kg/injection, schedule: Q01DX005 (ip), vehicle: water)?
A: 131, 132 (2×), 134, 136, 138, 140, 141, 142, 157 % of control

Q: And the T/C (dose: 12.5 mg/kg/injection, schedule: Q01DX009 (ip), vehicle: saline)?
A: 134 % of control

Q: And the T/C (dose: 16.0 mg/kg/injection, schedule: Q01DX005 (ip), vehicle: saline)?
A: 128 and 129 % of control

Q: And the T/C (dose: 19.4 mg/kg/injection, schedule: Q04DX002 (ip), vehicle: saline)?
A: 132 and 137 % of control

Q: What about the T/C (dose: 20.0 mg/kg/injection, schedule: Q01DX005 (ip), vehicle: water) of the same compound?
A: 126, 128, 135, 143 % of control

Q: And the T/C (dose: 24.0 mg/kg/injection, schedule: Q01DX005 (ip), vehicle: saline)?
A: 129 and 130 % of control

Q: What about the T/C (dose: 25.0 mg/kg/injection, schedule: Q01DX005 (ip), vehicle: saline, evaluated on day 30) of the same compound?
A: 141 and 144 % of control

Q: And the T/C (dose: 25.0 mg/kg/injection, schedule: Q01DX005 (ip), vehicle: saline, evaluated on day 60)?
A: 140 % of control

Q: What about the T/C (dose: 25.0 mg/kg/injection, schedule: Q01DX005 (ip), vehicle: water) of the same compound?
A: 125, 125 [5 of 6 alive], 127, 128 (2×), 130, 132, 138, 155, 185 % of control

Q: What about the T/C (dose: 25.0 mg/kg/injection, schedule: Q01DX009 (ip), vehicle: saline) of the same compound?
A: 143 % of control

Q: What about the T/C (dose: 30.0 mg/kg/injection, schedule: Q01DX005 (ip), vehicle: saline, evaluated on day 30) of the same compound?
A: 143, 144, 154 % of control

Q: What about the T/C (dose: 30.0 mg/kg/injection, schedule: Q01DX005 (ip), vehicle: saline, evaluated on day 45) of the same compound?
A: 138, 141 (3×), 142, 144 (2×), 146 % of control

Q: What about the T/C (dose: 30.0 mg/kg/injection, schedule: Q01DX005 (ip), vehicle: saline, evaluated on day 60) of the same compound?
A: 130 and 158 % of control

Q: And the T/C (dose: 32.4 mg/kg/injection, schedule: Q04DX002 (ip), vehicle: saline)?
A: 131 and 132 % of control

Q: What about the T/C (dose: 36.0 mg/kg/injection, schedule: Q01DX005 (ip), vehicle: saline) of the same compound?
A: 135 and 137 % of control

Q: What about the T/C (dose: 40.0 mg/kg/injection, schedule: Q01DX005 (ip), vehicle: water) of the same compound?
A: 140, 143, 150, 154 % of control

Q: What about the T/C (dose: 44.0 mg/kg/injection, schedule: Q01DX005 (ip), vehicle: saline, evaluated on day 30) of the same compound?
A: 142, 148, 150 % of control

Q: What about the T/C (dose: 44.0 mg/kg/injection, schedule: Q01DX005 (ip), vehicle: saline, evaluated on day 45) of the same compound?
A: 141 (3×), 142, 145, 148, 155, 157 % of control

Q: What about the T/C (dose: 44.0 mg/kg/injection, schedule: Q01DX005 (ip), vehicle: saline, evaluated on day 60) of the same compound?
A: 136, 146, 156 % of control

Q: And the T/C (dose: 50.0 mg/kg/injection, schedule: Q01DX005 (ip), vehicle: saline, evaluated on day 30)?
A: 135 % of control

Q: What about the T/C (dose: 50.0 mg/kg/injection, schedule: Q01DX005 (ip), vehicle: saline, evaluated on day 60) of the same compound?
A: 135 % of control

Q: And the T/C [1]?
A: 141, 147 (2×), 151 (2×), 158, 166, 169 % of control

Q: And the survivor count [1]?
A: 1 of 6 and 2 of 6

Q: What about the T/C (dose: 50.0 mg/kg/injection, schedule: Q01DX009 (ip), vehicle: saline) of the same compound?
A: 146 % of control

Q: What about the T/C (dose: 54.0 mg/kg/injection, schedule: Q01DX005 (ip), vehicle: saline) of the same compound?
A: 134 and 145 % of control [9 of 10 alive]

Q: And the T/C (dose: 54.0 mg/kg/injection, schedule: Q04DX002 (ip), vehicle: saline)?
A: 132 and 148 % of control

Q: And the T/C (dose: 67.0 mg/kg/injection, schedule: Q01DX005 (ip), vehicle: saline, evaluated on day 30)?
A: 154, 160, 161 % of control

Q: And the T/C (dose: 67.0 mg/kg/injection, schedule: Q01DX005 (ip), vehicle: saline, evaluated on day 45)?
A: 144, 155, 156, 157 (2×), 161, 164, 166 % of control

Q: What about the T/C (dose: 67.0 mg/kg/injection, schedule: Q01DX005 (ip), vehicle: saline, evaluated on day 60) of the same compound?
A: 147, 157, 167 % of control

Q: What about the survivor count (dose: 75.0 mg/kg/injection, schedule: Q01DX005 (ip), vehicle: saline) of the same compound?
A: 5 of 5

Q: What about the survivor count (dose: 80.0 mg/kg/injection, schedule: Q01DX005 (ip), vehicle: saline) of the same compound?
A: 5 of 10 and 8 of 10

Q: And the T/C [2]?
A: 146, 173, 188 % of control [5 of 6 alive]

Q: What about the survivor count [2] of the same compound?
A: 4 of 5

Q: And the T/C (dose: 90.0 mg/kg/injection, schedule: Q04DX002 (ip), vehicle: saline)?
A: 138 % of control

Q: And the T/C (dose: 100.0 mg/kg/injection, schedule: Q01DX005 (ip), vehicle: saline, evaluated on day 30)?
A: 101, 147 [8 of 10 alive], 171 % of control

Q: What about the T/C (dose: 100.0 mg/kg/injection, schedule: Q01DX005 (ip), vehicle: saline, evaluated on day 45) of the same compound?
A: 155, 161, 163, 168, 170, 185 % of control

Q: And the T/C (dose: 100.0 mg/kg/injection, schedule: Q01DX005 (ip), vehicle: saline, evaluated on day 60)?
A: 118 [7 of 10 alive], 186, 187, 190 % of control

Q: And the survivor count [3]?
A: 8 of 10, 10 of 10, 6 of 6

Q: And the survivor count (dose: 100.0 mg/kg/injection, schedule: Q01DX005 (ip), vehicle: water)?
A: 0 of 6, 1 of 6, 2 of 6, 3 of 6, 4 of 6, 6 of 6

Q: What about the survivor count (dose: 100.0 mg/kg/injection, schedule: Q01DX005 (iv), vehicle: saline) of the same compound?
A: 9 of 10

Q: What about the survivor count (dose: 100.0 mg/kg/injection, schedule: Q01DX009 (ip), vehicle: saline) of the same compound?
A: 10 of 10

Q: What about the survivor count (dose: 120.0 mg/kg/injection, schedule: Q01DX005 (ip), vehicle: saline) of the same compound?
A: 0 of 10 and 1 of 10

Q: And the survivor count (dose: 150.0 mg/kg/injection, schedule: Q01DX005 (ip), vehicle: saline)?
A: 0 of 5, 3 of 10, 4 of 10 (2×), 7 of 10 (2×)

Q: What about the survivor count (dose: 150.0 mg/kg/injection, schedule: Q01DX005 (oral), vehicle: saline) of the same compound?
A: 3 of 5

Q: And the survivor count (dose: 150.0 mg/kg/injection, schedule: Q04DX002 (ip), vehicle: saline)?
A: 0 of 5, 4 of 8, 5 of 8

Q: And the survivor count (dose: 200.0 mg/kg/injection, schedule: Q01DX001 (ip), vehicle: saline)?
A: 2 of 10

Q: What about the survivor count (dose: 200.0 mg/kg/injection, schedule: Q01DX001 (iv), vehicle: saline) of the same compound?
A: 0 of 10

Q: And the survivor count [4]?
A: 0 of 10

Q: What about the survivor count (dose: 300.0 mg/kg/injection, schedule: Q01DX001 (ip), vehicle: saline) of the same compound?
A: 0 of 5

Q: And the survivor count (dose: 300.0 mg/kg/injection, schedule: Q01DX005 (ip), vehicle: saline)?
A: 0 of 5

Q: And the survivor count (dose: 300.0 mg/kg/injection, schedule: Q04DX002 (ip), vehicle: saline)?
A: 0 of 5

Q: What about the survivor count (dose: 400.0 mg/kg/injection, schedule: Q01DX001 (ip), vehicle: saline) of the same compound?
A: 0 of 10

Q: And the survivor count (dose: 600.0 mg/kg/injection, schedule: Q01DX001 (ip), vehicle: saline)?
A: 0 of 5

Q: What about the survivor count (dose: 600.0 mg/kg/injection, schedule: Q04DX002 (ip), vehicle: saline) of the same compound?
A: 0 of 5

Q: What about the survivor count (dose: 1200.0 mg/kg/injection, schedule: Q01DX001 (ip), vehicle: saline) of the same compound?
A: 0 of 5

Q: With ClCCN(CCCl)CCCN1c2ccccc2Sc2ccccc21 as the compound, how does the T/C (dose: 6.25 mg/kg/injection, schedule: Q01DX009 (ip), vehicle: saline with Tween-80) read?
A: 131 % of control

Q: What about the T/C (dose: 12.5 mg/kg/injection, schedule: Q01DX009 (ip), vehicle: saline with Tween-80) of the same compound?
A: 140 % of control

Q: And the survivor count (dose: 25.0 mg/kg/injection, schedule: Q01DX009 (ip), vehicle: saline with Tween-80)?
A: 6 of 6

Q: What does the source list for CCOc1ccc2ccccc2c1C(Cc1ccccc1)NC (stereo not drawn)?
A: survivor count (dose: 100.0 mg/kg/injection, schedule: Q01DX005 (ip), vehicle: Klucel (hydroxypropylcellulose) (HPC)): 0 of 5; survivor count (dose: 200.0 mg/kg/injection, schedule: Q01DX005 (ip), vehicle: Klucel (hydroxypropylcellulose) (HPC)): 0 of 5

Q: Which results are given for C[N+]1(C)CCC(C(=O)c2ccccc2)CC1?
A: survivor count (dose: 50.0 mg/kg/injection, schedule: Q01DX005 (ip), vehicle: saline): 0 of 6; survivor count [3]: 0 of 6; survivor count [4]: 0 of 6
